## Library screen at single concentrations

Chains of the proteins cited; added tags and fusions are not shown. Residues count along the entry.
UniProt P9WPC5, whole entry: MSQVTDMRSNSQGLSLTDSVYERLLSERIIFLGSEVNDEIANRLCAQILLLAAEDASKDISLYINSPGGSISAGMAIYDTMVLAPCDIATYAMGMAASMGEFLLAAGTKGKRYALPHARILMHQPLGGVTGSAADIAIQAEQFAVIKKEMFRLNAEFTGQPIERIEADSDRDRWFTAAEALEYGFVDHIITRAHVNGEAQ
UniProt P9WPC3, whole entry partner: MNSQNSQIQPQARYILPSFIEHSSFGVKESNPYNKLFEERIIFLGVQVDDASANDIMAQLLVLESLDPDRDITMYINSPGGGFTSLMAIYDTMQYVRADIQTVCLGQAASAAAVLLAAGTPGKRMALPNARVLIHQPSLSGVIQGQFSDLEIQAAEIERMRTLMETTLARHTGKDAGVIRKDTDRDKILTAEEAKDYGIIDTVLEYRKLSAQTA
UniProt Q4DA54, 1-478: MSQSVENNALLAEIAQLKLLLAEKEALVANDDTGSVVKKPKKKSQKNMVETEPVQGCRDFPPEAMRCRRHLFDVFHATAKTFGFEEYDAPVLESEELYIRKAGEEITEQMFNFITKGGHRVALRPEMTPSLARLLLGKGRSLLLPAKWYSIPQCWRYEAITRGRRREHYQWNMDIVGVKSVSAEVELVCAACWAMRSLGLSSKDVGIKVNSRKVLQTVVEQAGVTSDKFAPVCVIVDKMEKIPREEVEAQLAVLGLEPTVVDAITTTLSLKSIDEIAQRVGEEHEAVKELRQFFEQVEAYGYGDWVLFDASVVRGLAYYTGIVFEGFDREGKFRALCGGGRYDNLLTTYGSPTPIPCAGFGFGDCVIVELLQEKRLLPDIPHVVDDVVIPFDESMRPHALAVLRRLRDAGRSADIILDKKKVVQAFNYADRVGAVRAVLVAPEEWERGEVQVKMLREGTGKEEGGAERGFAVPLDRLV
UniProt P9WNZ1, whole entry: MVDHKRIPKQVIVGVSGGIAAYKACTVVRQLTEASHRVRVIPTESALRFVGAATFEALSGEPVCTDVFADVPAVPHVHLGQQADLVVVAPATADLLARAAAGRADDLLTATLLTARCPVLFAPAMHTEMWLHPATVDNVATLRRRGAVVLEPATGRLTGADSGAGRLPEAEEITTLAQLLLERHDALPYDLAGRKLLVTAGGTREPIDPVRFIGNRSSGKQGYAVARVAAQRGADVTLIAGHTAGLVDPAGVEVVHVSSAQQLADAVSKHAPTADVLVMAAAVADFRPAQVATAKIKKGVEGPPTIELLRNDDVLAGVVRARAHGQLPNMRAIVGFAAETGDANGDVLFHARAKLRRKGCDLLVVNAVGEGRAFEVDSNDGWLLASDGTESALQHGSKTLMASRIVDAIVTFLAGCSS

The filed quantity is “Percent Effect” (%).
How 0% and 100% were set is not recorded. Most values in the screen are low, and negative values occur.
The compounds are a random part of those screened.
Two or more numbers in one place are separate tests of the same structure; such repeats can differ widely.
A dash means the value is not listed here; it may have been measured.

ClpP1P2: 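ClpP1P2, Mycobacterium tuberculosis (UniProt P9WPC5 and UniProt P9WPC3). Protease assay of ClpP1P2, read by the AMC dye that it sets free. Compounds at 50 µM. Higher reads as stronger inhibition, judged from the few compounds that gave an IC50. Most other retested compounds had strongly negative values. Size under these conditions: about 69,000 compounds, about 10 of them at 50% or above in at least one test.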
Toxoplasma: 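Assay of Toxoplasma gondii numbers, read through their beta-galactosidase reporter with a colour substrate. Tested at 10 µM. The record gives no direction; the compounds picked for IC50 retests had high values, so higher reads as fewer parasites. Of about 67,000 compounds tested this way, about 260 (0.38%) reached 50% or more in at least one test.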
Leishmania in macrophages: 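Cell assay of Leishmania donovani living inside macrophages; the read-out is not stated. Tested at 30 µM. Direction is inferred from retests: higher values go with stronger inhibition. About 69,000 compounds were tested under these conditions; 1.5% (about 1,000) showed 50% or more at least once.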
TcHisRS: 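Enzyme assay of histidyl-tRNA synthetase; the read-out is not stated. Target: Histidine-tRNA ligase, Trypanosoma cruzi CL Brener (UniProt Q4DA54). Tested at 30 µM. The record gives no direction; compounds that gave an IC50 in retests scored well above the rest, so higher reads as stronger inhibition. About 69,000 compounds were tested under these conditions; 0.045% (about 31) showed 50% or more at least once.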
CoaBC: 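Coenzyme A biosynthesis protein CoaBC, Mycobacterium tuberculosis (UniProt P9WNZ1). Enzyme assay of CoaBC with a phosphate dye (Biomol Green) read at 650 nm. Tested at 30 µM. Higher reads as stronger inhibition, judged from the few compounds that gave an IC50. Most strong results did not repeat in a second test. Of about 67,000 compounds tested this way, about 40 (0.06%) reached 50% or more in at least one test.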

| # | SMILES | ClpP1P2 | Toxoplasma | Leishmania in macrophages | TcHisRS | CoaBC |
|---|---|---|---|---|---|---|
| 1 | `O=C(NCc1ccc2c(c1)OCO2)[C@@H]1C=CCN1c1ncccn1` | -19.4 | - | 6.447 | 0.7692 | 1.9 |
| 2 | `COc1cc(N2CC[C@H](O)[C@@H]2Cc2cnn(C)c2)ncn1` | 1.779 | 2.421 | 12.89 | -1.657 | 7.969 |
| 3 | `CNC(=O)C1CCN(S(C)(=O)=O)CC1` | -1.083 | 15.45 | 8.136 | 3.093 | -8.277 |
| 4 | `CCC(CNS(C)(=O)=O)Oc1ccccc1F` (centres undefined) | -5.237 | -5.678 | 10.41 | 0 | 2.39 |
| 5 | `O=C(O)C(F)(F)F.c1cc(COC[C@H]2CCC[C@]23CNCCO3)ccn1` | - | -1.122 | 22.18 | - | - |
| 6 | `Cc1nn(C)c(N(C)C)c1CNC(C)COc1ccc(F)cc1F` (centres undefined) | 3.266 | -2.478 | 37.66 | 4.571 | -3.584 |
| 7 | `O=S(=O)(NCc1ccc(S(=O)(=O)N2CCCC2)s1)c1cc(Cl)ccc1Cl` | 3.572 | -3.332 | 11.96 | 5.263 | -2.02 |
| 8 | `Cl.O=C1CC2(CCNCC2)C(=O)N1c1cccc(F)c1` | - | -3.809 | 13.79 | - | - |
| 9 | `CC(C)(C)OC(=O)NCC1CCN(C(=O)c2ccccc2O)C1` (centres undefined) | -2.993 | -14.09 | 9.288 | 1.064 | 5.423 |
| 10 | `CN1CCN(C2COC3(CCN(CC4CC4)CC3)C2)CC1` (centres undefined) | -0.2897 | - | - | 3.681 | - |
| 11 | `CC[C@@H](Cn1ncc2ccccc2c1=O)NC(=O)c1ccco1` | -5.948 | 0.9155 | -1.601 | 2.326 | 49.45 & 4.639 |
| 12 | `CN(Cc1cc(C2CC2)on1)C(=O)CN1C(=O)OC(C)(C)C1=O` | -18.6 | -3.263 | 13.16 | 6.522 | 6.542 |
| 13 | `O=c1ccc2c(n1CC1CC1)CCN(c1ncccn1)CC2` | -4.203 | 18.73 | 12.07 | 7.778 | -0.7317 |
| 14 | `Cn1cc(C(=O)CC2CCCN2C(=O)c2n[nH]c3ccccc23)cn1` (centres undefined) | -0.07653 | 5.681 | 9.818 | 3.383 | 3.655 |
| 15 | `Cc1cc(-c2nn(C)c(Cl)c2CN2Cc3ccccc3C(O)C2)no1` (centres undefined) | -14.36 | -2.88 | 29.26 | -54.55 | 9.211 |
| 16 | `Cn1cc(C(=O)N2CCCC2CCc2ccccc2)cn1` (centres undefined) | -7.536 | -31.5 | -5.714 | 5.172 | 4.912 |
| 17 | `Cn1nc(C#N)c2c1CN(C(=O)c1ccnnc1)CCC2` | 7.887 | -0.2254 | 12.43 | -10.93 | -6.754 |
| 18 | `O=C(Nc1ccccc1)N1CCn2nnc(COc3cccnc3)c2C1.O=C(O)C(F)(F)F` | - | -8.49 | -13.54 | - | - |
| 19 | `CCOc1cc(C)nc(N2CCN(C(=O)c3ccnn3C)CC2)n1` | 0.329 | 4.416 | 23.85 | 3.448 | 6.745 |
| 20 | `CCC(CNC(=O)c1nc(=O)[nH][nH]1)Oc1ccccc1C(F)(F)F` (centres undefined) | -12.6 | 4.762 | 2.434 | 8.743 | 12.47 |
| 21 | `[H][C@@]12C[C@H](C(=O)NC)[C@@]([H])(CN(C(=O)Nc3ccccc3)C1)O2` | - | -6.903 | -19.96 | - | - |
| 22 | `[H][C@@]12CCN(C[C@@H]1CN1CCCCC1)[C@@H](CNC(=O)Nc1ccccc1)C2` | - | -7.696 | -87.4 | - | - |
| 23 | `Cc1cccc(CN2CCOC3(CCCN(CC(=O)N(C)C)C3)C2)n1` (centres undefined) | -0.7764 | - | - | 6.186 | 0.2463 |
| 24 | `[H][C@]12CN(C(=O)c3ccnn3C)C[C@@]1([H])OCCN(S(C)(=O)=O)C2` | - | 13.19 | 16.45 | - | - |
| 25 | `COc1ccc(C[C@H]2CN(Cc3ccoc3)CC[C@@H]2OC)cc1` | -3.743 | - | - | 11.73 | 2.303 |
| 26 | `CCC(CCN)n1ccc(C(F)(F)F)n1` (centres undefined) | 11.12 | 3.37 | 7.577 | 3.468 | -3.313 |
| 27 | `CN(C)C(=O)c1cccc(C[S+]([O-])CC(=O)NC2CCCC2)c1` (centres undefined) | -0.4054 | 0.8999 | 11.88 | 2.381 | 1.225 |
| 28 | `CCc1c(C(=O)N2CCN(CC(N)=O)CC2)cnn1C(C)(C)C` | -0.9902 | 3.453 | -14.24 | -0.7576 | 10.18 |
| 29 | `O=C(Cc1c[nH]c(=O)[nH]c1=O)N1CCCCC1CCc1cccc(O)c1` (centres undefined) | -10.69 | -0.3895 | -23.31 | 5.952 | -1.106 |
| 30 | `c1coc(CN2CCc3nnc(COc4cncnc4)n3CC2)c1` | 17.72 | - | - | 9.091 | 14.29 |
| 31 | `O=C([C@H]1C[C@@H]2CCN(C3CCOCC3)C[C@@H]2O1)N1CCOCC1` | 7.351 | - | - | 3.784 | 5.203 |
| 32 | `CC(Cn1cccn1)NC(=O)NCc1cccnc1OC(C)C` (centres undefined) | -16.29 | -2.84 | 30.38 | 1.695 | 4.961 |
| 33 | `CCC(C)NC(=O)c1snnc1-c1ccc(OC)cc1` (centres undefined) | -5.277 | 1.856 | 34.62 | 4.663 | -11.46 |
| 34 | `N[C@@H]1CC[C@@H]1NC(=O)c1ccccc1OC(F)(F)C(F)F` | -15.88 | -6.659 | -0.1496 | 4.433 | -4.839 |
| 35 | `CCc1nc2n(n1)CC(Nc1ccnc(-c3ccccc3)n1)CC2` (centres undefined) | -3.998 | 3.289 | 23.68 | 4.386 | 1.734 |
| 36 | `[H][C@]12CCN(C(=O)Cc3cccc(OC)c3)[C@@]1([H])CCC(=O)N2` | - | -6.488 | 15.2 & -15.59 | - | - |
| 37 | `[H][C@]12CN(C(=O)NC(C)C)CCN1C(=O)N(CCOC)C2` | - | -2.239 | -12.4 | - | - |
| 38 | `COC(=O)N1CCC(NC(=O)CC(C)CCc2ccccc2)CC1` (centres undefined) | -3.376 | 0.7052 | -4.351 | -6.122 | 12.74 |
| 39 | `COCCN1CC2(CCCN(Cc3cc(=O)c(OC)co3)C2)CCC1=O` (centres undefined) | -9.947 | -28.38 | 19.58 | 1.818 | 1.46 |
| 40 | `CCOc1ncc(NC(=O)c2ccco2)c(OCC)n1` | -6.809 | -7.851 | 12.98 & 5.919 | 1.031 | -4.017 |
| 41 | `O=C(c1cnc(O)cn1)N1CCCC1c1nc2cc(F)ccc2[nH]1` (centres undefined) | -21.77 | 6.407 | 2.857 | 1.339 | 1.276 |

The first 4 entries again:

{"smiles": "O=C(NCc1ccc2c(c1)OCO2)[C@@H]1C=CCN1c1ncccn1", "ClpP1P2": -19.4, "Leishmania in macrophages": 6.447, "TcHisRS": 0.7692, "CoaBC": 1.9}
{"smiles": "COc1cc(N2CC[C@H](O)[C@@H]2Cc2cnn(C)c2)ncn1", "ClpP1P2": 1.779, "Toxoplasma": 2.421, "Leishmania in macrophages": 12.89, "TcHisRS": -1.657, "CoaBC": 7.969}
{"smiles": "CNC(=O)C1CCN(S(C)(=O)=O)CC1", "ClpP1P2": -1.083, "Toxoplasma": 15.45, "Leishmania in macrophages": 8.136, "TcHisRS": 3.093, "CoaBC": -8.277}
{"smiles": "CCC(CNS(C)(=O)=O)Oc1ccccc1F", "stereo": "centres undefined", "ClpP1P2": -5.237, "Toxoplasma": -5.678, "Leishmania in macrophages": 10.41, "TcHisRS": 0, "CoaBC": 2.39}

Data taken from ChEMBL document CHEMBL3988442, “University of Dundee, Small-Polar-MMV Screening Library” (2021).